# Screening data

From PubChem BioAssay record AID1053133 (Broad Institute, 2014).

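Vaccinia-infected cells with a two-color viral stage reporter; Venus fluorescence read on a plate reader; the cell line is not named here; timing not stated here. The test concentration is not given here. Percent change in Venus reporter signal; lower (more negative) values mean stronger inhibition of that viral stage.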

Values are in %. How 0% and 100% were set is not given here. Common to all entries: measured here: Venus reporter, other viral stage. This is a side read-out of the assay, for part of the compounds, not drawn at random.

- O=C1CN(S(=O)(=O)Cc2ccccc2)C[C@@H]2[C@@H](c3ccc(C#Cc4ccc(F)cc4)cc3)[C@@H](CO)N12 | activity change (Venus) -89.54%
- Cc1noc(C)c1S(=O)(=O)N(C)C[C@H]1OCCCC[C@@H](C)Oc2ccc(NS(=O)(=O)c3ccc(Cl)cc3)cc2C(=O)N([C@@H](C)CO)C[C@H]1C | activity change (Venus) -56.95%
- O=C(Nc1ccc(F)cc1)N1CC(=O)N2[C@H](C1)[C@H](c1ccc(-c3ccc(F)cc3)cc1)[C@@H]2CO | activity change (Venus) -54.67%
- Cc1noc(C)c1NC(=O)Nc1ccc2c(c1)C(=O)N([C@@H](C)CO)C[C@H](C)[C@H](CN(C)Cc1ccc(C(F)(F)F)cc1)OCCCC[C@H](C)O2 | activity change (Venus) -78.61%
- C[C@@H]1CN([C@@H](C)CO)C(=O)c2cccc(NC(=O)Nc3ccc4c(c3)OCO4)c2O[C@H]1CN(C)Cc1ccc(Cl)c(Cl)c1 | activity change (Venus) -30.77%
- C[C@H](CO)N1C[C@H](C)[C@H](CN(C)Cc2ccccc2)Oc2ncc(-c3cccc(C(F)(F)F)c3)cc2C1=O | activity change (Venus) -34.07%
- O=C(C[C@@H]1CC[C@@H]2[C@H](COC[C@@H](O)CN2C(=O)Nc2cc(Cl)cc(Cl)c2)O1)NCC1CCCCC1 | activity change (Venus) -33.07%
- COc1ccc(S(=O)(=O)N(C)C[C@H]2Oc3cc(-c4cccc(F)c4)ccc3S(=O)(=O)N([C@H](C)CO)C[C@@H]2C)cc1 | activity change (Venus) -26.9%
- C[C@@H]1CCCCO[C@H](CN(C)CC2CCCCC2)[C@H](C)CN([C@@H](C)CO)C(=O)c2cc(NC(=O)Nc3ccc4c(c3)OCO4)ccc2O1 | activity change (Venus) -58.33%
- C[C@@H]1CCCCO[C@H](CN(C)S(=O)(=O)c2ccc(Cl)cc2)[C@@H](C)CN([C@@H](C)CO)C(=O)c2cc(NC(=O)CCC(F)(F)F)ccc2O1 | activity change (Venus) -46.04%
- CN(C)C(=O)c1cccc(-c2cccc(-c3nc(C(=O)NC4CCCCC4)cc4c3[C@H](CCO)N([S@@](=O)C(C)(C)C)C4)c2)c1 | activity change (Venus) -23.29%
- C[C@H](CO)N1C[C@H](C)[C@@H](CN(C)S(=O)(=O)c2ccc(Cl)cc2)Oc2ccc(NC(=O)Cc3ccccc3)cc2CC1=O | activity change (Venus) -47.13%
- N#C[C@@H]1[C@@H](c2ccc(C3=CCCCC3)cc2)[C@@H](CO)N1C(=O)NC1CCCC1 | activity change (Venus) -39.83%
- Cc1cccc(-c2ccc(C3[C@@H]4CN(Cc5ccccc5)C[C@H]3N4)cc2)c1 (stereo not given in full) | activity change (Venus) -23.04%
- C[C@@H]1CN([C@H](C)CO)C(=O)c2cc(N(C)C)ccc2O[C@@H](C)CCCCO[C@@H]1CN(C)S(=O)(=O)c1cccs1 | activity change (Venus) -35.66%
- C[C@@H]1CN([C@H](C)CO)C(=O)c2c(c3ccccc3n2C)-c2ccccc2CO[C@H]1CN(C)S(=O)(=O)c1cccc(F)c1 | activity change (Venus) -39.76%
- COc1cccc(-c2cccc(-c3nc(C(=O)NCCCN4CCOCC4)cc4c3[C@@H](CCO)N(S(=O)C(C)(C)C)C4)c2)c1 (stereo not given in full) | activity change (Venus) -7.689%
- O=C(C1CCCC1)N1CC2(C1)[C@@H](c1ccccc1)[C@@H](CO)N2CC1CCCC1 | activity change (Venus) -25.09%
- COc1ccc2c3c(n(C)c2c1)[C@H](CO)NCC31CCN(Cc2ccc(-c3ccccn3)cc2)CC1 | activity change (Venus) -51.12%
- C[C@H]1CN([C@@H](C)CO)C(=O)c2ccccc2-c2ccccc2CO[C@H]1CN(C)S(=O)(=O)c1ccc(Cl)cc1 | activity change (Venus) -45.98%
- O=C(Nc1ccccc1)N1CCCCN2[C@@H](CO)[C@H](c3ccc(C#CC4CC4)cc3)[C@@H]2C1 | activity change (Venus) -61.02%
- CCC(=O)N1CC(=O)N2[C@H](CO)[C@H](c3ccc(C#CCC(C)C)cc3)[C@H]2C1 | activity change (Venus) -30.64%
- Cc1ccc(S(=O)(=O)Nc2ccc3c(c2)C(=O)N([C@H](C)CO)C[C@@H](C)[C@H](CN(C)S(=O)(=O)c2c(C)noc2C)OCCCC[C@@H](C)O3)cc1 | activity change (Venus) -38.49%
- O=C(Cc1ccncc1)N1CC[C@@H]2[C@H](CO)Nc3ccc(-c4ccccc4F)cc3[C@@H]21 | activity change (Venus) -18.44%
- Cc1noc(C)c1S(=O)(=O)Nc1ccc2c(c1)C(=O)N([C@@H](C)CO)C[C@@H](C)[C@@H](CN(C)Cc1ccc3c(c1)OCO3)OCCCC[C@@H](C)O2 | activity change (Venus) -40.49%
- COc1ccc(NC(=O)N2CC[C@@H]3[C@H]2c2cc(-c4ccc(F)cc4)ccc2N(C)[C@H]3CO)cc1 | activity change (Venus) -74.04%

Once more, the final 2:

Cc1noc(C)c1S(=O)(=O)Nc1ccc2c(c1)C(=O)N([C@@H](C)CO)C[C@@H](C)[C@@H](CN(C)Cc1ccc3c(c1)OCO3)OCCCC[C@@H](C)O2 gave activity change (Venus) -40.49%.
COc1ccc(NC(=O)N2CC[C@@H]3[C@H]2c2cc(-c4ccc(F)cc4)ccc2N(C)[C@H]3CO)cc1 gave activity change (Venus) -74.04%.